Values joined by “and” are separate entries in the source; they are usually repeats but may differ in a detail not shown here. Equal entries are not always repeated. Some of the results follow. Single wells; the ratio to wells without odorant was worked out here, and repeats agree poorly.
Legend:
Assay in all cases: odorant receptor activation (CRE luciferase / Renilla) (fold of no-odor wells); higher = more activation
Settings in all cases: 100 µM
OR13C3 G2C clone 1339 = tested on: OR13C3 G2C clone 1339
OR13C3 clone 1390 = tested on: OR13C3 clone 1390
OR13C4 clone 1094 = tested on: OR13C4 clone 1094
[1] = tested on: OR13C5 S18F/L69M/P79S/L86V/N128S/M258T clone 1477
OR13C7 Indel clone 1100 = tested on: OR13C7 Indel clone 1100
OR13C8 clone 1095 = tested on: OR13C8 clone 1095
OR13C9 F197L clone 1096 = tested on: OR13C9 F197L clone 1096
OR13D1 clone 1338 = tested on: OR13D1 clone 1338
OR13D1 clone 1484 = tested on: OR13D1 clone 1484
[2] = tested on: OR13F1 F18S/M101V/V134I/I270T clone 1097

SMILES	odorant receptor activation (OR13C3 G2C clone 1339)	odorant receptor activation (OR13C3 clone 1390)	odorant receptor activation (OR13C4 clone 1094)	odorant receptor activation [1]	odorant receptor activation (OR13C7 Indel clone 1100)	odorant receptor activation (OR13C8 clone 1095)	odorant receptor activation (OR13C9 F197L clone 1096)	odorant receptor activation (OR13D1 clone 1338)	odorant receptor activation (OR13D1 clone 1484)	odorant receptor activation [2]
CCC(C)=O [2-butanone]	1.17	1.39	16.1	1.02	12.6	3.15	34.7	1.04	0.918	1.6
CCOc1cc(C=O)ccc1O [ethyl vanillin]	0.376 and 1.11	1.19 and 1.05	1.62 and 1.04	1.28 and 1.73 and 1.03	0.836 and 1.1	1.9 and 1.13	0.85 and 1.11	2.88 and 1.08	1.13 and 1.82 and 1.44	0.82 and 0.933
CCCCOC(C)=O [butyl acetate]	0.981	0.218	1.21	0.832	1.36	0.92	1.2	0.785	1.29	1.19
CS [methanethiol]	0.936	0.802	0.94	1.13	1.14	1.24	1.23	0.921	0.825	1.15
